Reference: article PMC8301015
No constants are given. Whether binding was seen depends on the method and setting. In cells and extracts the contact can be indirect. These calls come from enrichment with a bait or labelling near it, and not all partners need be listed. Where a sequence is shown, tags or fusion partners need not be part of it.

T1: AbxC (atypical BrxC; DR_1832), C-terminal His x 6 tag (Deinococcus radiodurans) (UniProt Q9RTD3)
T1 sequence: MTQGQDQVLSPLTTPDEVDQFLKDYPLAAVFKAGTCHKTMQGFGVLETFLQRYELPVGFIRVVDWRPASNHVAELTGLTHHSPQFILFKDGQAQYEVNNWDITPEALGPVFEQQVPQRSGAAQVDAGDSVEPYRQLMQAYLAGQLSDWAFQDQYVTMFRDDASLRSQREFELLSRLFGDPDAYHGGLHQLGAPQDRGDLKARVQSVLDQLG

B1: putative sensory transduction regulator (DR_1245), endogenous (protein, UniProt Q9RUY5 1-165)
chain: MRPAFTSQEENTMETALLTLDTLAKYLQEKEVQLDIEENGGQRFIRMGWRFEMGDAAVLVSVNDGPNNTSRLEITCVTQKTYADRRAEVAMMLNDRNRERAFARSIDQEGNVWLEYVGFYPTLAEMPQETFDTLFGGVLMHFQDDYAALEGYVPQEGMQIQQPQA
B2: signal transduction response regulator (DR_1418), endogenous (protein, UniProt Q9RUG8 1-134)
chain: MAVMAYTILVADDEPAIRTMLEVILSADGHEIVAVPDGRAALAYLQSHTPDALLLDVKMPYMDGFEICSRVKRIKRLRGCAVLLLSTVDDDQTRDQAKLVGADDIVVKPVSGKLLRGRVNQLIEARRGGSLYPL
B3: Nudix family protein (DR_1776), endogenous (enzyme, UniProt Q9RTI8 1-175)
chain: MPPLGVDVWGEWGVRLPGMTDIRLPLGGLKFSVRVALLCVRNGELLVQTSEANAPEPFFFLPGGALSTDEDAATCARREWEEETGLLCGPLRLVAVVENFFGPPEKRQHEIGFYFRLEEVPAELPHGAFSVLDNTDTGFEWVRLDELGARPVYPLLVRDLLSVPVGEVRHLVIRS
B4: organic hydroperoxide reductase (DR_1857), endogenous (enzyme, UniProt Q9RTA8 1-139)
chain: MANVYTAEATATGGRAGTTRSSDDRLNLDLSVPAEMGGDGGPGTNPEQLFAAGYAACFQGALGVVSRRQKIDVPADSTITARVGLQKAGLAFALDVELEGHFPGLSREQAEGLMHAAHEVCPYSAATRNNVDVRLKVRE
B5: acyl-CoA thioester hydrolase (DR_2298), endogenous (enzyme, UniProt Q9RS29 1-165)
chain: MRRAPTLPGMTASSRPRPEEVYEALDWSRALRHRIQMRYADLDTMGHLNNAVYVQYFETARVLVWEDLGIPPHLDRSVIAHQEIDYRREVRWGQDVWVEALIERLGNTSWTTVCRMVADGQPCAYSRTVQVRVGEGGLRPQPLEPELRELMSRLLVPGQDSPNPA
B6: hypothetical protein (DR_2481), endogenous (protein, UniProt Q9RRK8 1-153)
chain: MPRPFLTVLRNSGGMDEQEMLTALRELFPRAEVTEAMNAFFWFAEGDERKLMPFLTLVTTDEHDRASRLSREGAYRLNFSLTPAEYASRFGPLPKARADWGVVDTGFDYAAPDRLMPHPIYAPLGWACIVRPGRESFEALVPLLRAAYERALT
B7: radical SAM superfamily protein (DR_1298), endogenous (protein, UniProt Q9RUT4 1-522)
chain: MTEALEQPLRRILSYWRNEIKPLLDAETGTLFKQAPIRVTLAFPNRYSVGMASLGYQVIYRMFNQEEGVACERAFLPDDVDAFERTGQALPTVESGRAAGDCELFSISVSFELDLTNIIRLIDVAGMNPLREERDETDPVVMIGGPLTSSNPYPLTPFADIIIIGDGEQIVPVVSEALRESSSREDFYDLIDGVPGVFLPARHVHEPTWATAPKELLPAYSQIVTPHSELSNMFLVEAQRGCPRPCTFCLARTMYGPNRNNQAQELLDVIPDWVEKVGLVGAALSDFPHTKFVGKTLTERGVKLGVSSIRADTVDAELAEILKAGGLRTFTVASDAPSERLRRWLKKGITTEDLLKTAQISRDLGFSGLKVYMMIGLGPENDDDITELISFTKELAGINRIALGISPFVPKRHTPHFADPFAGVQTIEKRLKRIQKELRTTAELRNVSAKWAWVESVIARGGPEVGMAAYQIYRNESIGAWKKALDEVGWQDDFEANTPSIGLPPGQYESKEVSAHAQGLAV
B8: propionyl-CoA carboxylase (DR_1316), endogenous (enzyme, UniProt Q9RUR6 1-520)
chain: MTQPGIELQELIATMEQRRRKVEEGGGPERQQKQREGGKLTARERIERLLDPGSFLESSTFVEHGRNRLMDGIEAPGEGVVTGSGTIDGRQVFVFSQDFTVLGGSLGKMNASKVTKIMDLAAKTGCPVIGLNDSAGARIQEGVDSLSGYGEIFYRNAVYSGSVPQISAILGPCAGGAVYSPAITDFILMSRGSSYMFITGPEVIKSVTREEVTFDQLGGADVHTRKSGVAHLAYEGDEAVIDGIKDLLGYLPQNAREKAPVKPTSDPADRRNEKLLDIVTPDQRRPYAMQDVIRELVDDGTFLEIQPDWAKNIIVGFARLNGQSVGIVANNPKALSGSLNIDASDKAARFIRTCDCYNVPILTLVDVSGFLPGVQQEYGGIIRHGAKMLYAYAEATVPKVTLITRKSYGGAYLAMNSRDMGADVVYAWPTATVAVMGAEGAANIVYRKDIKDSENPAATRAEKIAEYKEAFDNPYVAAAKGYIDDVIPMEETRERLIRTFEMLANKEETRPFKKHGNIPL
B9: glucose-6-phosphate isomerase (DR_1742), endogenous (enzyme, UniProt Q9RTL8 1-541)
chain: MSRLTDLPAWQALEDHYYELQGTHLRELFAADPERGEKMNAEGAGLYLDYSKHRVTDETLRLLRELAQATGVEARRDAMFRGEKINVTEGRAVLHTALRAPRDAVIEVDGKNVVPEVHEVLDRMATFADAVRSGEWLGYTGKPIKNIVNIGIGGSDLGPVMAYEALKHYAQRDLTVRFVSNVDGTDLTEKTRDLDPEVTLFIVSSKTFTTQETMTNARSARKWLLGSLKDDAAVTRHFVAVSTNAEEVQKFGIDTANMFGFWDWVGGRYSMDSAIGLSLMVAVGPEHFREMLAGFHDMDEHFRTAPAEQNLPMLMGLLGVWYGDFFGAESLAVLPYDQYLASFPAYLQQLDMESNGKHVTLGGEPVDYQTGPIVWGQAGTNGQHAFYQLIHQGTKLIPCDFIGFCQTLNPLPPHHDLLMANVFAQTEALAFGKTLEQVLADGVAPEVAPHRVFEGNRPTSTILADRLTPRTLGALIALYEHKVFVQGAVWDINSFDQWGVELGKVLAKKIDGELQSEGEPELQHDSSTNALIRRYRARRQG
B10: transcriptional regulator OxyR (DR_0615), endogenous (protein, UniProt Q9RWQ1 1-317)
chain: MELRHLRHFVALAEEEHFGRAAERVFVVQQALSSSIRNLEEEVGVQLVTRTTRRVQLTPAGEEFLIGARATLAQAAQTVERARRAAQGEVGRLTVGFVSGLAFGGLPEIVRRFRELYPAVSVDLRELTAGEQEAALRGGQIDVGLLLLPVRDPALASRPLWRLPLVAALPAAHPLASRTTLRIGDLSQEDFVFFPRYLRATYFDQVMHWCADAGFTPHVVQEAIEIPTLLSLVAAGVGVFLPIEFFARLALPGVVYRPLEGAPVIEIVAVWRRAAAGEQSTRPTVQAFLQVAERVLSGENGAGEATPLPVLPTEPPR
B11: proline dehydrogenase (DR_0814), endogenous (enzyme, UniProt Q9RW55 1-310)
chain: MIDQLYRKAVLTVAERPQVEQLARQKMWNLAERFVAGESIESAIQAVQALERDGIAGNLDLLGEFIDSPAKCTEFADDVIKLIEAAHAAGIKPYVSIKLSSVGQGKDENGEDLGLTNARRIIAKAKEYGGFICLDMEDHTRVDVTLEQFRTLVGEFGAEHVGTVLQSYLYRSLGDRASLDDLRPNIRMVKGAYLEPATVAYPDKADVDQNYRRLVFQHLKAGNYTNVATHDERIIDDVKRFVLAHGIGKDAFEFQMLYGIRRDLQKQLAAEGYRVRVYLPYGRDWYAYFSRRIAETPRNAAFVVQGMLKG
B12: acetyl-CoA acetyltransferase (DR_1072), endogenous (enzyme, UniProt Q9RVF7 1-393)
chain: MSKAVIVAASRTPTGKFLGALTDVPAVELGAITLRETLRRSGMPAELVEEVIMGQVVQAGCGQNPARQAALRAGVSHEAGALTINKVCGSGLKAVMLAAQSIRAGDQQAVLAGGMESMSNAPHLLPGARKGYRLGHATVLDANTHDGLWCSINDEGMGLTGERVAEKYSIGREEQDAYATGSHRKAVAAAQGGLFKDEIVPVTIKGRKGDVIVDTDEGPRADTSEETLGKLKPAFKKDGSVTAGNAPGLNDGAASLLVVSEELAQAHELTPLAEIVDYASGGLAPEWVMMTPVPATQKLLKKMNIQAGDVDLWELNEAFSVQSLAVARELGLDAERVNVNGGAVALGHPIGASGARILVTLLSALKQQDKELGVATLCMGGGNGLALAVRRLG

Biological target: T1, AbxC (atypical BrxC; DR_1832), C-terminal His x 6 tag (Deinococcus radiodurans)
Experiment: affinity purification with mass spectrometry; AbxC immobilised on CNBr-activated Sepharose 4B; 10 mg D. radiodurans cell lysate, overnight at 4 °C; washed with 100 mM Tris pH 8.0, 0.5 M NaCl; eluted with 10 mM DTT; SDS-PAGE bands, in-gel trypsin, nLC-MS-MS; only the target purified

| Binder | binding |
| --- | --- |
| B1 | binds |
| B2 | binds |
| B3 | binds |
| B4 | binds |
| B5 | binds |
| B6 | binds |
| B7 | binds |
| B8 | binds |
| B9 | binds |
| B10 | binds |
| B11 | binds |
| B12 | binds |
